# Earlier results, collected in patent US20170151215A1, “USE OF ROTIGOTINE FOR TREATING THE RESTLESS LEG SYNDROME” (UCB PHARMA GMBH, priority 2002, published 2017).
# For at least one compound, name, drawing or mass did not settle the structure.
# Tested on: Restless Leg Syndrome (RLS)
# Settings: short-term therapy studies; cited from earlier work
smiles,measurement,value
CC(C)C[C@H]1C(=O)N2CCC[C@H]2[C@]2(O)O[C@](NC(=O)[C@@H]3C=C4c5cccc6[nH]c(Br)c(c56)C[C@H]4N(C)C3)(C(C)C)C(=O)N12 [bromocriptine],effectiveness in RLS,effective
